The text below walks through data of the supplement of paper PMC6411743.

Sequences of proteins named here, by UniProt entry; tags and fusion partners are left off. A change or cut given only in a name is not applied to a line headed by its entry.
UniProt P78371: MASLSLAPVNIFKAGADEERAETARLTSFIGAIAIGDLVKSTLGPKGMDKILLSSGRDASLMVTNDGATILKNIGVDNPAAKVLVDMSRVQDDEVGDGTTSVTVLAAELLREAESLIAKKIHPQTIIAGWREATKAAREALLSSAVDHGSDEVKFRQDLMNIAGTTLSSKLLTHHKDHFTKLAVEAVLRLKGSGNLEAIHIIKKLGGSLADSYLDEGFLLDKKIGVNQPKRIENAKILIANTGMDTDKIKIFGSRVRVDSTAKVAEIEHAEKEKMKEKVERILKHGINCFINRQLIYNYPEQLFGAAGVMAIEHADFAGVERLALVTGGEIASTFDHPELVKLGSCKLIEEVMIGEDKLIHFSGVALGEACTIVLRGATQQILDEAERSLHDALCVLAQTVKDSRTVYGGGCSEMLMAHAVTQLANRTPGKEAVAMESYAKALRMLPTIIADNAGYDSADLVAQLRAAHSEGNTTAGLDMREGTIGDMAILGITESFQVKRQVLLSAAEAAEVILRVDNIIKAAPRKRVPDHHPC
UniProt Q00169: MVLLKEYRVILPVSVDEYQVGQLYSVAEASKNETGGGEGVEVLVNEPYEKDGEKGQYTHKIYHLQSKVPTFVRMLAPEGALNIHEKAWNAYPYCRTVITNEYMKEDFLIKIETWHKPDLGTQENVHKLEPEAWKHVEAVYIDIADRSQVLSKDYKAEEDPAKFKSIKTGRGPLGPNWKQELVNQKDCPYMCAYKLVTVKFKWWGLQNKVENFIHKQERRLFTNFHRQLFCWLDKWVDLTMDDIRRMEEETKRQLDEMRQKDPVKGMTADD
UniProt P62699: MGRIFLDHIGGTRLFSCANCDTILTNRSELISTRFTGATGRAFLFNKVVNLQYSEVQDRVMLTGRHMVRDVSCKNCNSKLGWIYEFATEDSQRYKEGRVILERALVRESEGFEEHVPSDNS
UniProt P62879, whole entry: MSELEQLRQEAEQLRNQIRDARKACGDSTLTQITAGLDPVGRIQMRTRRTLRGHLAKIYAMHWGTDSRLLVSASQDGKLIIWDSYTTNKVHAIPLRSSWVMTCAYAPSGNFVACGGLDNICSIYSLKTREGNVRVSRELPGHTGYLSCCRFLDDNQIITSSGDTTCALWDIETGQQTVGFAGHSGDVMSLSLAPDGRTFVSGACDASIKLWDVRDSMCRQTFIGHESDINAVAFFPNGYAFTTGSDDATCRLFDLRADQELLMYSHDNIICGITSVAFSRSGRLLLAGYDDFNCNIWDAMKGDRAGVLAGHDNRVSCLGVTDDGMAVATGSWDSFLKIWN
UniProt P51659: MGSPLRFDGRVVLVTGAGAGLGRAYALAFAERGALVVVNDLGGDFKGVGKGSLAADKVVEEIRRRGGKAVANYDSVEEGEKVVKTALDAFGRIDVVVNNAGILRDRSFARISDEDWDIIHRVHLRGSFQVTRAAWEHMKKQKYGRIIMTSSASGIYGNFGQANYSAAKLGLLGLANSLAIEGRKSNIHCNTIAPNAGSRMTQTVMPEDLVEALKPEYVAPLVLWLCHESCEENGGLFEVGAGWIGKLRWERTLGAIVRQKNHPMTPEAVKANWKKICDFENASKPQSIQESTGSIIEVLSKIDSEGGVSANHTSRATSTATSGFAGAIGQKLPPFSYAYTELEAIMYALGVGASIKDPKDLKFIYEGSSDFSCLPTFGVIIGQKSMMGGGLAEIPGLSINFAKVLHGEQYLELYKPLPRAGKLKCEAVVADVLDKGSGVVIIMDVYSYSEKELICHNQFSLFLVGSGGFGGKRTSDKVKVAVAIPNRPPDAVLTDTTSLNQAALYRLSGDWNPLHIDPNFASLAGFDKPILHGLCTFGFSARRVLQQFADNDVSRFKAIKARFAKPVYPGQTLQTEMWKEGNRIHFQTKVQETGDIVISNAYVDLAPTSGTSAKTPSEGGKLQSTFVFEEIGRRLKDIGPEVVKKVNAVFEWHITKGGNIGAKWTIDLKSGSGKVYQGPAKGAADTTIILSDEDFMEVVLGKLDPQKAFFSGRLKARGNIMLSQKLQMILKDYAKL
UniProt P51149, whole entry: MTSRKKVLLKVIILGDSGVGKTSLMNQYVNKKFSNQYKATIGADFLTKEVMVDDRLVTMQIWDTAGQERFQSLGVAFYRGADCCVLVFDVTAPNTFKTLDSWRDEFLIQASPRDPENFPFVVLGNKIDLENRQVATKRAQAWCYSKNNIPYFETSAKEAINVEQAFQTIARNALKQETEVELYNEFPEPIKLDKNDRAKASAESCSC
UniProt P54886: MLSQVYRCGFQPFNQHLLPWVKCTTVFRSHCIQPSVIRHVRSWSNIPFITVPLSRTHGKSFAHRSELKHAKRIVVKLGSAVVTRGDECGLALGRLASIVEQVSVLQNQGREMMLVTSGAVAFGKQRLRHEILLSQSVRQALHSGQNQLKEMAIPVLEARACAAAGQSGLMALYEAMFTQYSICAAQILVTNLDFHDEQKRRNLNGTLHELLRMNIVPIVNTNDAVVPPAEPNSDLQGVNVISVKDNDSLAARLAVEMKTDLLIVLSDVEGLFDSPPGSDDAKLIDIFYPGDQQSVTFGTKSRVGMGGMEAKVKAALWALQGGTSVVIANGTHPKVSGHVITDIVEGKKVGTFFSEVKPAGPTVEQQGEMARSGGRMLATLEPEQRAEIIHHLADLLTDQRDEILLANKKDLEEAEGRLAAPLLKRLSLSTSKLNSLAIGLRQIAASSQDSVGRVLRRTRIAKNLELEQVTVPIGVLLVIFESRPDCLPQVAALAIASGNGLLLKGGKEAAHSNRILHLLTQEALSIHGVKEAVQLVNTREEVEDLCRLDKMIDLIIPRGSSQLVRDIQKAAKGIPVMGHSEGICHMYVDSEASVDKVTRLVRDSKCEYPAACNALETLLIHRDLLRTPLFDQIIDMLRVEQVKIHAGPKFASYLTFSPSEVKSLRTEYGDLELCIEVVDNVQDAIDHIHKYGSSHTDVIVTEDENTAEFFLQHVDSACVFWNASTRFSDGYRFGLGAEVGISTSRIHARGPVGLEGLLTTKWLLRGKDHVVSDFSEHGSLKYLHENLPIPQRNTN
UniProt P50613: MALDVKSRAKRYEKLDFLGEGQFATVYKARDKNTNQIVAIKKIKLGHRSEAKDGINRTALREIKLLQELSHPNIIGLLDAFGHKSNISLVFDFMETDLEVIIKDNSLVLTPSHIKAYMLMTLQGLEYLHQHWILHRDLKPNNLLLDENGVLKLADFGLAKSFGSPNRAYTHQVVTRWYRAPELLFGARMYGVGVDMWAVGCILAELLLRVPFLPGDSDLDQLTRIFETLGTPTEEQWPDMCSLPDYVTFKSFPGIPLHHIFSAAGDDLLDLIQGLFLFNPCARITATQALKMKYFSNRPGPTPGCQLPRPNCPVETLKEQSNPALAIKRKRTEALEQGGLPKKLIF
UniProt P52294, whole entry: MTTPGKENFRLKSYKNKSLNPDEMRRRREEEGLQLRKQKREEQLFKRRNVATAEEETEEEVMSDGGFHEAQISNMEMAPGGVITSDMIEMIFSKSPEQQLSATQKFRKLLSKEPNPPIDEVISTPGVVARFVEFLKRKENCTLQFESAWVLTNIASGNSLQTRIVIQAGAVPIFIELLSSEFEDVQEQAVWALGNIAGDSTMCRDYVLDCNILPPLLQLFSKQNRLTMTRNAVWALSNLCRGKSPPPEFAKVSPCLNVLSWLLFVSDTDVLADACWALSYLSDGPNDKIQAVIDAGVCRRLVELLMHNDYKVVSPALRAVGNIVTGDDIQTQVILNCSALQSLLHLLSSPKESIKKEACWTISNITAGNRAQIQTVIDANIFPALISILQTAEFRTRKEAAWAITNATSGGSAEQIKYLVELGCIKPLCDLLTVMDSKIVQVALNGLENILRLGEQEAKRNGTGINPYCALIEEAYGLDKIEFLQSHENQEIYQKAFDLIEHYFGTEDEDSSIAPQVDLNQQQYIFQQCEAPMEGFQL
UniProt P55273: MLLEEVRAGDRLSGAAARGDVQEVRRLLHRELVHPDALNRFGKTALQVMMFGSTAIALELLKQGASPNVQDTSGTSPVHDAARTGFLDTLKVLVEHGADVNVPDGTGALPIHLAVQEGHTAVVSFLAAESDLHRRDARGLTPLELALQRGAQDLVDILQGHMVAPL
UniProt P53602: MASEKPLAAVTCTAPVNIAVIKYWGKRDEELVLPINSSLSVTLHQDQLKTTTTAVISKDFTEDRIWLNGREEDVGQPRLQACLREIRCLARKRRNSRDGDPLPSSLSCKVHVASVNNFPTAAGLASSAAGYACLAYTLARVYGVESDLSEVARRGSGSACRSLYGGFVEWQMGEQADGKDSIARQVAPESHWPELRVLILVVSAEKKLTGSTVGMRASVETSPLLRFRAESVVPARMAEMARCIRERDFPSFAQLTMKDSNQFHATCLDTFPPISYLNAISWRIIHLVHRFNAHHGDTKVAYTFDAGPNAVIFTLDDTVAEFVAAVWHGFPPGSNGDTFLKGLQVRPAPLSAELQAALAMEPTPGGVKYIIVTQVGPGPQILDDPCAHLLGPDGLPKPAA
UniProt P51114, whole entry: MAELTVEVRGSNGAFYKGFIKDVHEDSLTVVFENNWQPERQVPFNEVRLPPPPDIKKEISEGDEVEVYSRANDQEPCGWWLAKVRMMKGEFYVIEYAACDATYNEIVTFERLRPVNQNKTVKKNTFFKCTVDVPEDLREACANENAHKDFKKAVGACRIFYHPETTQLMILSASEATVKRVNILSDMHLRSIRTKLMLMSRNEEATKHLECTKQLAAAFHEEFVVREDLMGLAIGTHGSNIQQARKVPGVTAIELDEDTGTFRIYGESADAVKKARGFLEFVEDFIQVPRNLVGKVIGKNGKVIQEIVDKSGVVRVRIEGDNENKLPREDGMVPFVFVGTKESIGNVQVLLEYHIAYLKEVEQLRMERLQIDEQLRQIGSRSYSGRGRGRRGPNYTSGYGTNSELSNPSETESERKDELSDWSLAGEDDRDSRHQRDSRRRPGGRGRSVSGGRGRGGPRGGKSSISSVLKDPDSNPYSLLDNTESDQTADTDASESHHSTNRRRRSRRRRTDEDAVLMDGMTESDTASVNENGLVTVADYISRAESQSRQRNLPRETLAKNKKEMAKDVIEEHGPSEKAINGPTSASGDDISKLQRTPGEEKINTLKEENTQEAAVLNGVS
UniProt P62166, whole entry, looked up: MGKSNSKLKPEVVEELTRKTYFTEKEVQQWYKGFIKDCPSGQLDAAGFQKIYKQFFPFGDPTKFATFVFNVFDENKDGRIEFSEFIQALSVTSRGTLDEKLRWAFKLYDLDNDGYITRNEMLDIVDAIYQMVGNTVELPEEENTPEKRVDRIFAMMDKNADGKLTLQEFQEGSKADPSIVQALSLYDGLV
UniProt P68402: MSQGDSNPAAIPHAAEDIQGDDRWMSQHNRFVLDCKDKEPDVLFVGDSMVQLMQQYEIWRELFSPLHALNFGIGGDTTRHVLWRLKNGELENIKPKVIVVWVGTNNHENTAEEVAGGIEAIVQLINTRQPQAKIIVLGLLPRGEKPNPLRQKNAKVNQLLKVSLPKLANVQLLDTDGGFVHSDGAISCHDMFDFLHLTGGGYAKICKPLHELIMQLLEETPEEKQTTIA

Compound in this experiment: Nc1nc2c(ncn2[C@@H]2O[C@H](COP(=O)(O)OP(=O)(O)OP(=O)(O)O)[C@@H](O)[C@H]2O)c(=O)[nH]1 [guanosine triphosphate]
Nature of the experiment: NP40-soluble protein abundance relative to vehicle (solubility fold change) (ratio); higher = more soluble protein in presence of GTP. A digest of the protocol:
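Each value is a fold change relative to the detergent-processed vehicle, calculated per replicate from vsn-normalised intensities. Jurkat crude lysate received eight concentrations (0.1 to 10 mM) for 10 min at room temperature and 3 min at 37 °C, then was solubilised in 0.8% NP40 with benzonase (60 min, 4 °C). The ultracentrifuged supernatant was TMT-labelled and run by LC-MS/MS in three independent experiments.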

± gives the standard deviation of the averaged measurements. This is one part of the list.

Turning to CCT2 (UniProt P78371), the NP40-soluble protein abundance runs as follows: (concentration: 0.1mM) 1 ± 0.021; (concentration: 0.5mM) 1.06 ± 0.07; (concentration: 1mM) 1.07 ± 0.12; (concentration: 2mM) 1.08 ± 0.16; (concentration: 4mM) 1.08 ± 0.18; (concentration: 6mM) 1.07 ± 0.19. Moreover, the NP40-soluble protein abundance is, setting by setting: (concentration: 8mM) 1.06 ± 0.19; (concentration: 10mM) 0.999 ± 0.19.

As for UniProt Q00169 and related entries, the NP40-soluble protein abundance is 0.968 ± 0.036 (concentration: 0.1mM); 0.967 ± 0.046 (concentration: 0.5mM); 0.904 ± 0.013 (concentration: 1mM); 0.911 ± 0.023 (concentration: 2mM); 0.888 ± 0.04 (concentration: 4mM); 0.884 ± 0.037 (concentration: 6mM). The NP40-soluble protein abundance runs as follows: (concentration: 8mM) 0.833 ± 0.046; (concentration: 10mM) 0.851 ± 0.064.

Turning to YPEL5 (UniProt P62699), the NP40-soluble protein abundance runs as follows: (concentration: 0.1mM) 1.35 ± 0.14; (concentration: 0.5mM) 1.25 ± 0.03; (concentration: 1mM) 1.332 ± 0.0098; (concentration: 2mM) 1.54 ± 0.029; (concentration: 4mM) 1.47 ± 0.044; (concentration: 6mM) 1.39 ± 0.11. In addition, the NP40-soluble protein abundance reads like this: (concentration: 8mM) 1.42 ± 0.079; (concentration: 10mM) 1.27 ± 0.032.

With UniProt P62879, the NP40-soluble protein abundance runs as follows: (concentration: 0.1mM) 0.978 ± 0.035; (concentration: 0.5mM) 1.01 ± 0.064; (concentration: 1mM) 0.917 ± 0.031; (concentration: 2mM) 0.947 ± 0.074; (concentration: 4mM) 0.924 ± 0.05; (concentration: 6mM) 0.937 ± 0.054. Further, the NP40-soluble protein abundance was 0.913 ± 0.048 (concentration: 8mM) and 0.893 ± 0.09 (concentration: 10mM).

Take HSD17B4 (UniProt P51659): the NP40-soluble protein abundance stood at 1.02 ± 0.0057 (concentration: 0.1mM); 1.01 ± 0.026 (concentration: 0.5mM); 0.9623 ± 0.0073 (concentration: 1mM); 0.947 ± 0.032 (concentration: 2mM); 0.958 ± 0.021 (concentration: 4mM); 0.944 ± 0.028 (concentration: 6mM). Besides, the NP40-soluble protein abundance is 0.93 ± 0.032 (concentration: 8mM) and 0.912 ± 0.048 (concentration: 10mM).

Turning to UniProt P51149, the NP40-soluble protein abundance (concentration: 0.1mM) was determined as 0.964 ± 0.027; the NP40-soluble protein abundance (concentration: 0.5mM) is 0.95 ± 0.029; the NP40-soluble protein abundance (concentration: 1mM) turned out to be 0.895 ± 0.053; the NP40-soluble protein abundance (concentration: 2mM) was determined as 0.858 ± 0.049; the NP40-soluble protein abundance (concentration: 4mM) is 0.843 ± 0.069; the NP40-soluble protein abundance (concentration: 6mM) came to 0.849 ± 0.048. For the same target, the NP40-soluble protein abundance by setting is: (concentration: 8mM) 0.82 ± 0.093; (concentration: 10mM) 0.803 ± 0.086.

As for UniProt P54886 and related entries, the NP40-soluble protein abundance is 1.02 ± 0.026 (concentration: 0.1mM); 1.07 ± 0.05 (concentration: 0.5mM); 0.9494 ± 0.0094 (concentration: 1mM); 0.976 ± 0.039 (concentration: 2mM); 0.964 ± 0.031 (concentration: 4mM); 0.95 ± 0.02 (concentration: 6mM). Moreover, the NP40-soluble protein abundance by setting is: (concentration: 8mM) 0.906 ± 0.027; (concentration: 10mM) 0.903 ± 0.055.

Consider UniProt P50613, for which the NP40-soluble protein abundance (concentration: 0.1mM) stood at 1.02 ± 0.035; the NP40-soluble protein abundance (concentration: 0.5mM) is 1.03 ± 0.046; the NP40-soluble protein abundance (concentration: 1mM) came to 0.952 ± 0.018; the NP40-soluble protein abundance (concentration: 2mM) amounted to 0.976 ± 0.03; the NP40-soluble protein abundance (concentration: 4mM) was determined as 0.981 ± 0.029; the NP40-soluble protein abundance (concentration: 6mM) came out at 0.976 ± 0.035. Besides, the NP40-soluble protein abundance (concentration: 8mM) was found to be 0.971 ± 0.04 and the NP40-soluble protein abundance (concentration: 10mM) is 0.95 ± 0.022.

KPNA1 (UniProt P52294): the NP40-soluble protein abundance reads like this: (concentration: 0.1mM) 1.06 ± 0.044; (concentration: 0.5mM) 1.08 ± 0.041; (concentration: 1mM) 1.04 ± 0.042; (concentration: 2mM) 1.06 ± 0.059; (concentration: 4mM) 1.06 ± 0.04; (concentration: 6mM) 1.05 ± 0.061. Moreover, the NP40-soluble protein abundance is, setting by setting: (concentration: 8mM) 1.1 ± 0.079; (concentration: 10mM) 1.057 ± 0.0089.

On to CDKN2D (UniProt P55273), for which the NP40-soluble protein abundance by setting is: (concentration: 0.1mM) 0.954 ± 0.083; (concentration: 0.5mM) 0.891 ± 0.14; (concentration: 1mM) 0.967 ± 0.077; (concentration: 2mM) 0.97 ± 0.1; (concentration: 4mM) 0.903 ± 0.093; (concentration: 6mM) 0.935 ± 0.13. Besides, the NP40-soluble protein abundance (concentration: 8mM) was found to be 0.844 ± 0.14 and the NP40-soluble protein abundance (concentration: 10mM) turned out to be 0.895 ± 0.047.

In the case of UniProt P78563 and related entries, the NP40-soluble protein abundance reads like this: (concentration: 0.1mM) 1.05 ± 0.12; (concentration: 0.5mM) 1.03 ± 0.13; (concentration: 1mM) 1.007 ± 0.0033; (concentration: 2mM) 1.07 ± 0.053; (concentration: 4mM) 1.11 ± 0.044; (concentration: 6mM) 1.16 ± 0.062. Moreover, the NP40-soluble protein abundance amounted to 1.15 ± 0.031 (concentration: 8mM) and 1.16 ± 0.1 (concentration: 10mM).

Turning to MVD (UniProt P53602), the NP40-soluble protein abundance (concentration: 0.1mM) was 0.989 ± 0.049; the NP40-soluble protein abundance (concentration: 0.5mM) was determined as 0.97 ± 0.037; the NP40-soluble protein abundance (concentration: 1mM) is 0.944 ± 0.068; the NP40-soluble protein abundance (concentration: 2mM) is 0.912 ± 0.018; the NP40-soluble protein abundance (concentration: 4mM) amounted to 0.897 ± 0.019; the NP40-soluble protein abundance (concentration: 6mM) was 0.917 ± 0.064. The NP40-soluble protein abundance runs as follows: (concentration: 8mM) 0.905 ± 0.027; (concentration: 10mM) 0.868 ± 0.042.

As for FXR1 (UniProt P51114), the NP40-soluble protein abundance (concentration: 0.1mM) was determined as 1.13 ± 0.11; the NP40-soluble protein abundance (concentration: 0.5mM) turned out to be 1.23 ± 0.075; the NP40-soluble protein abundance (concentration: 1mM) came to 1.31 ± 0.042; the NP40-soluble protein abundance (concentration: 2mM) amounted to 1.54 ± 0.07; the NP40-soluble protein abundance (concentration: 4mM) was determined as 1.885 ± 0.0094; the NP40-soluble protein abundance (concentration: 6mM) turned out to be 2.02 ± 0.03. For the same target, the NP40-soluble protein abundance by setting is: (concentration: 8mM) 2.16 ± 0.091; (concentration: 10mM) 2.28 ± 0.13.

As for NCS1 (UniProt P62166), the NP40-soluble protein abundance runs as follows: (concentration: 0.1mM) 0.952 ± 0.091; (concentration: 0.5mM) 0.944 ± 0.12; (concentration: 1mM) 0.9888 ± 0.0021; (concentration: 2mM) 0.902 ± 0.21; (concentration: 4mM) 0.907 ± 0.011; (concentration: 6mM) 0.894 ± 0.089. Moreover, the NP40-soluble protein abundance came out at 0.857 ± 0.14 (concentration: 8mM) and 0.8225 ± 0.0015 (concentration: 10mM).

For PAFAH1B2 (UniProt P68402), the NP40-soluble protein abundance (concentration: 0.1mM) was 0.948 ± 0.021; the NP40-soluble protein abundance (concentration: 0.5mM) was determined as 0.932 ± 0.056; the NP40-soluble protein abundance (concentration: 1mM) stood at 0.866 ± 0.058; the NP40-soluble protein abundance (concentration: 2mM) amounted to 0.868 ± 0.053; the NP40-soluble protein abundance (concentration: 4mM) came to 0.8194 ± 0.0068; the NP40-soluble protein abundance (concentration: 6mM) turned out to be 0.851 ± 0.021. The NP40-soluble protein abundance by setting is: (concentration: 8mM) 0.776 ± 0.058; (concentration: 10mM) 0.811 ± 0.047.
